Laboratory results: article PMC4924701

Chains of the proteins cited; added tags and fusions are not shown. Lines headed by an entry give the natural chain unless they say otherwise; changes in a name come on top.
UniProt P36888: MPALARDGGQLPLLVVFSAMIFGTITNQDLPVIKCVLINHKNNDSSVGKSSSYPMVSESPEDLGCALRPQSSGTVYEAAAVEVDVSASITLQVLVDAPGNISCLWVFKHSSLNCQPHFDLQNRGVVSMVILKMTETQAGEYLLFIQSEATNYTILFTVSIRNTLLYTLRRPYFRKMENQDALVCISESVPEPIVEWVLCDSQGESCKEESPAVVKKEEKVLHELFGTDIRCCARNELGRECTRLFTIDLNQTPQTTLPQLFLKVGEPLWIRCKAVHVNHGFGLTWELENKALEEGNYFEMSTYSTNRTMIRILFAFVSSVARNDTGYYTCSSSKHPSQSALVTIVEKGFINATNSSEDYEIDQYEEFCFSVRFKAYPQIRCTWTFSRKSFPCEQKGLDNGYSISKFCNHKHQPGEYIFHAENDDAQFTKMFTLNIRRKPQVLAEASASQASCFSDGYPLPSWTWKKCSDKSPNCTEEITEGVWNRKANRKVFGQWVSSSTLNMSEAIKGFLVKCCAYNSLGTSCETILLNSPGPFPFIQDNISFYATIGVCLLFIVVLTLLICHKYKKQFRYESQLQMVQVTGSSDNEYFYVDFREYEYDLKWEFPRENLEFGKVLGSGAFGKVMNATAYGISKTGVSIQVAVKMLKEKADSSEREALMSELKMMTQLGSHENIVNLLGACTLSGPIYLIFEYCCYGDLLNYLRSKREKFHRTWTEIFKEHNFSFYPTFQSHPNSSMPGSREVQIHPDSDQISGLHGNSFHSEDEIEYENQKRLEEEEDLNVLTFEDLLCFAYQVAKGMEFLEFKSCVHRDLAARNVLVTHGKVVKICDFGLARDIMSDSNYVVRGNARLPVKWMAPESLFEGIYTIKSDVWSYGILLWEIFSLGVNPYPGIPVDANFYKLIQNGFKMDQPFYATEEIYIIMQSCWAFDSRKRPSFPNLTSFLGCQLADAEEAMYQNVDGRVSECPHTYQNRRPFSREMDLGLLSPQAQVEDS

Molecular target: T1, FLAG-tagged GADS (GRB2-related adaptor protein 2, GRAP2) (human) (UniProt O75791)
T1 sequence: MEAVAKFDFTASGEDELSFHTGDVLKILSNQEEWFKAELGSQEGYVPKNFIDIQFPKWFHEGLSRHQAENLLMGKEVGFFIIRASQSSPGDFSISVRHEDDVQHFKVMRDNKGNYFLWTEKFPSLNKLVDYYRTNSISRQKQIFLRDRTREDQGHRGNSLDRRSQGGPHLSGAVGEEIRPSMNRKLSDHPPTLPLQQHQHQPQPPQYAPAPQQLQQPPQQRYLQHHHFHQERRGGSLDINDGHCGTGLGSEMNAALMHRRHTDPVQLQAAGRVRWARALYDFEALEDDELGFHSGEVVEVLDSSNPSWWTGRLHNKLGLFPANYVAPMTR
Test: co-IP; COS-1 cells co-transfected with FLAG-GADS and FLT3 plasmids, stimulated or not with 100 ng/ml FL for five minutes before lysis; anti-FLAG immunoprecipitation, Western blotting

binding: binds
Substance: FLT3-ITD (internal tandem duplication mutant) (from UniProt P36888) (receptor)

These are yes or no findings as the source states them, for the method shown. Binding seen in cells or lysates may run through a third protein. A result given as binding can be weak or reduced; the word gives no strength. Sequences can lack the tags named with a protein.
